At least one compound was matched to its structure with a doubt left.
Target: T1, CFTR-mediated transepithelial chloride transport in primary human bronchial epithelial cells from a ΔF508 homozygous CF donor (Homo sapiens, UniProt P13569, DEL508-508)
T1 construct: Primary human bronchial epithelial cells from a ΔF508 homozygous CF donor; host or cells: primary CF-HBE cells, ΔF508 homozygous donor
Assay: TECC24 recording of CFTR-mediated transepithelial chloride transport in CF-HBE cells (AUC fold over DMSO)
Assay type: cell-based
Conditions: test agent 10 μM, 48 hours incubation, AUC of forskolin-stimulated IEQ relative to DMSO
Method: Example 316: TECC24 AUC Fold Over DMSO @ 10 uM
The effects of a test agent on CFTR-mediated transepithelial chloride transport was measured using TECC24 recording analysis. Test agents were solubilized in DMSO. Solubilized test agents were mixed with incubation medium containing DMEM/F12, Ultroser G (2%; Crescent Chemical, catalog #67042), Hyclone Fetal Clone II (2%; GE Healthcare, catalog #SH30066.02), bovine brain extract (0.25%; Lonza, catalog #CC-4098), insulin (2.5 μg/mL), IL-13 (10 ng/mL), hydrocortisone (20 nM), transferrin (2.5 μg/mL), triiodothyronine (500 nM), ethanolamine (250 nM), epinephrine (1.5 μM), phosphoethanolamine (250 nM), and retinoic acid (10 nM). Primary human bronchial epithelial cells from a ΔF508 homozygous CF donor (CF-HBE cells; from University of North Carolina Cystic Fibrosis Tissue Procurement Center), grown on Transwell HTS 24-well cell culture inserts (Costar, catalog #3378), were exposed to test agents or controls dissolved in incubation medium. The CF-HBE cells were cultured at 36.5° C. for 48 hours before TECC24 recordings were performed in the presence or absence of test agent, a positive control or vehicle (DMSO).
Following incubation, the transwell cell culture inserts containing the test agent or control-treated CF-HBE cells were loaded onto a TECC24 apparatus (TECC v7 or MTECC v2; EP Design) to record the transepithelial voltage (VT) and resistance (TEER) using 4 AgCl electrodes per well configured in current-clamp mode. The apical and basolateral bath solutions both contained (in mM) 140 NaCl, 5 KCl, 2 CaCl2), 1 MgCl2, 10 Hepes, and 10 glucose (adjusted to pH 7.4 with NaOH). To inhibit basal Na+ absorption, the ENaC inhibitor benzamil (10 μM) was added to the bath. Then, the adenylate cyclase activator, forskolin (10 μM), was added to the bath to activate CFTR. The forskolin-stimulated Cl-transport was halted by addition of CFTR inhibitor-172 (20 μM) to the bath at the end of the experiment to confirm specificity. VT and TEER recordings were digitally acquired at routine intervals using TECC or MTECC software (EP Design). VT and TEER were transformed into equivalent transepithelial Cl-current (IEQ), and the Area Under the Curve (AUC) of the IEQ time course between forskolin and CFTR inhibitor-172 addition was generated using Excel (Microsoft). Efficacy is expressed as the ratio of the test agent AUC divided by vehicle AUC. EC50s based on AUC are generated using the non-linear regression log(agonist) vs. response function in Prism software (GraphPad) with Hill Slope fixed=1.
If a test agent increased the AUC of the forskolin-stimulated IEQ relative to vehicle in CF-HBE cells, and this increase was inhibited by CFTR inhibitor-172, then the test agent was considered a CFTR corrector.

Amino acid sequences for entries named in this document (tags omitted). A change or cut given only in a name is not applied to a line headed by its entry. Chains listed by the source or under a name are the forms on record and can include a tag or linker.
UniProt P13569, with tags, fused parts or gaps DEL508-508: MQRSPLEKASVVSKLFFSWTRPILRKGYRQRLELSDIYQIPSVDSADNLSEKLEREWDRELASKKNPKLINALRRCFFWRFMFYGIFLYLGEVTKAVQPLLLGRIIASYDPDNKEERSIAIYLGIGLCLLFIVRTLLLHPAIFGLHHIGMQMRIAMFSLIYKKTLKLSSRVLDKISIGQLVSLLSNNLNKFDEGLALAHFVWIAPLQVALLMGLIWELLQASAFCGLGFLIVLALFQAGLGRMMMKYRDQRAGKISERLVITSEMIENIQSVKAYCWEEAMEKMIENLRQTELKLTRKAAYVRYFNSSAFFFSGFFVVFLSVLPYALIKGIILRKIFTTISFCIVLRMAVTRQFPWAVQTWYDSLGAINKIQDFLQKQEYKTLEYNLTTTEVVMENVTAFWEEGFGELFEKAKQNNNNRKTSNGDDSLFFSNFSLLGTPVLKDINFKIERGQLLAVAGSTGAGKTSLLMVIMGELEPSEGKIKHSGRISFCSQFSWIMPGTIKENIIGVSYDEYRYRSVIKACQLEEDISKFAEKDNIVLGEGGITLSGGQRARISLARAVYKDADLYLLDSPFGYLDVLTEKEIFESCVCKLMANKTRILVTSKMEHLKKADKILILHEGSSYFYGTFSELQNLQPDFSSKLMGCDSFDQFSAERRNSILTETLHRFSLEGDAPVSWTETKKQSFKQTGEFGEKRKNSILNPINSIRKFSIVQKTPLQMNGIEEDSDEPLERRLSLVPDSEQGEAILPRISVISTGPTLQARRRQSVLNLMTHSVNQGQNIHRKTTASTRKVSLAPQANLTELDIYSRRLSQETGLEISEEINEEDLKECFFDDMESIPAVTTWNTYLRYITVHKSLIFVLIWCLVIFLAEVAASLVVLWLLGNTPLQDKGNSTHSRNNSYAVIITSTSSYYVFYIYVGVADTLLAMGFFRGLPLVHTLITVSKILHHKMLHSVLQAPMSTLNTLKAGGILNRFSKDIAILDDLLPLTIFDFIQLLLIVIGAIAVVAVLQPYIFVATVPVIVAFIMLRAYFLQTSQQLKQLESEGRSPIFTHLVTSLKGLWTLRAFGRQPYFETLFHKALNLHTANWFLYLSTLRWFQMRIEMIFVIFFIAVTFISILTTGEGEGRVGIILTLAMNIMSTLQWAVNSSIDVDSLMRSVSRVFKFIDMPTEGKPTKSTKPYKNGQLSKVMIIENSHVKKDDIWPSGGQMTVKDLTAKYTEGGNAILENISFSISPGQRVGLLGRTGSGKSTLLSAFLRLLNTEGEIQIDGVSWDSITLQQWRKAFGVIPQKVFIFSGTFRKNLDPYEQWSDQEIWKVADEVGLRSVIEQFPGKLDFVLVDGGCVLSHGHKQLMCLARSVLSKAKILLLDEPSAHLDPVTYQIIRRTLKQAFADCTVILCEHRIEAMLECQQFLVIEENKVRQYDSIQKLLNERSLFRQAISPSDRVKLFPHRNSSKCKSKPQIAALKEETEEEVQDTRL

## CC(C)(C)[C@H](NC(=O)c1ccc2ccccc2c1OCc1ccc(C(F)(F)F)cn1)C(=O)O [Example 2, (S)-3,3-dimethyl-2-(1-((5-(trifluoromethyl)pyridin-2-yl)methoxy)-2-naphthamido)butanoic Acid]
  TECC24 AUC fold over DMSO @10 μM: C (“C” refers to AUC @10 uM <4)

## CC(C)(c1ccccc1)C(NC(=O)c1ccc2ccccc2c1OCc1ccc(C(F)(F)F)cc1)C(=O)O (centres unmarked) [Example 16, 3-methyl-3-phenyl-2-(1-((4-(trifluoromethyl)benzyl)oxy)-2-naphthamido)butanoic Acid]
  TECC24 AUC fold over DMSO @10 μM: C (“C” refers to AUC @10 uM <4)

## O=C(N[C@H](C(=O)O)C12CC(C(F)(F)F)(C1)C2)c1ccc2ccccc2c1OCc1ccc(S(F)(F)(F)(F)F)cc1 [Example 24, (S)-2-(1-((4-(pentafluoro-λ^6-sulfanyl)benzyl)oxy)-2-naphthamido)-2-(3-(trifluoromethyl)bicyclo[1.1.1]pentan-1-yl)acetic Acid]
  TECC24 AUC fold over DMSO @10 μM: C (“C” refers to AUC @10 uM <4)

## CC1([C@H](NC(=O)c2ccc3cc(F)ccc3c2OCc2ccc(OC(F)(F)F)cc2)C(=O)O)CC1 [Example 30, (S)-2-(6-fluoro-1-((4-(trifluoromethoxy)benzyl)oxy)-2-naphthamido)-2-(1-methylcyclopropyl)acetic Acid]
  TECC24 AUC fold over DMSO @10 μM: C (“C” refers to AUC @10 uM <4)

## CC1(C(NC(=O)c2ccc3cc(F)ccc3c2OCc2ccc(C(F)(F)F)cc2)C(=O)O)CC1 (centres unmarked) [Example 60, 2-(6-fluoro-1-((4-(trifluoromethyl)benzyl)oxy)-2-naphthamido)-2-(1-methylcyclopropyl)acetic Acid]
  TECC24 AUC fold over DMSO @10 μM: C (“C” refers to AUC @10 uM <4)

## O=C(N[C@@H](Cc1ccccc1)C(=O)O)c1ccc2ccccc2c1OCc1ccc(C(F)(F)F)cc1 [Example 87, (1-((4-(trifluoromethyl)benzyl)oxy)-2-naphthoyl)-L-phenylalanine]
  TECC24 AUC fold over DMSO @10 μM: C (“C” refers to AUC @10 uM <4)

## O=C(N[C@H](Cc1ccccc1)C(=O)O)c1ccc2ccccc2c1OCc1ccc(C(F)(F)F)cc1 [Example 89, (1-((4-(trifluoromethyl)benzyl)oxy)-2-naphthoyl)-D-phenylalanine]
  TECC24 AUC fold over DMSO @10 μM: C (“C” refers to AUC @10 uM <4)

## CO[C@@H](C)[C@H](NC(=O)c1ccc2ccccc2c1OCc1ccc(C(F)(F)F)cc1)C(=O)O [Example 135, O-methyl-N-(1-((4-(trifluoromethyl)benzyl)oxy)-2-naphthoyl)-L-allothreonine]
  TECC24 AUC fold over DMSO @10 μM: C (“C” refers to AUC @10 uM <4)

## CC(C)(O)[C@H](NC(=O)c1ccc2ccccc2c1OCc1ccc(C(F)(F)F)cc1)C(=O)O [Example 138, (S)-3-hydroxy-3-methyl-2-(1-((4-(trifluoromethyl)benzyl)oxy)-2-naphthamido)butanoic Acid]
  TECC24 AUC fold over DMSO @10 μM: C (“C” refers to AUC @10 uM <4)

## O=C(N[C@H](C(=O)O)C(c1ccccc1)c1ccccc1)c1ccc2cc(F)ccc2c1OCc1ccc(Cl)c(Cl)c1 [Example 209, (S)-2-(1-((3,4-dichlorobenzyl)oxy)-6-fluoro-2-naphthamido)-3,3-diphenylpropanoic Acid]
  TECC24 AUC fold over DMSO @10 μM: C (“C” refers to AUC @10 uM <4)

## Cc1ccc2ccc(C(=O)N[C@@H](C(=O)O)C(C)(C)C)c(OCc3ccc(OC(F)(F)F)cc3)c2c1 [Example 289, (R)-3,3-dimethyl-2-(7-methyl-1-((4-(trifluoromethoxy)benzyl)oxy)-2-naphthamido)butanoic Acid]
  TECC24 AUC fold over DMSO @10 μM: C (“C” refers to AUC @10 uM <4)

From US12630498B2 (Genzyme Corporation, priority 2019, dated 2026)
